# Laboratory results: patent US20080317723A1, “LYMPHATIC ENDOTHELIAL CELLS MATERIALS AND METHODS” (VEGENICS LIMITED, priority 2001, published 2008)
# At least one structure is not confirmed: it was looked up by name or label, or the drawing left a doubt.
# Assays:
# CREB = CREB Ser133 phosphorylation in HMVE cells, Western blot; type: cell-based, human; settings: inhibition of Akt pathway
# Protocol: (§1) Western blot analysis. Endothelial cells were cultured on 35 mm dishes to near confluence, starved for 24 h in serum free medium and stimulated as indicated. Wortmannin ([…]), LY294002 ([…]), PD98059 (10-25 μM) or GF109203X (2.5-5 μM) were added 1-3 h before stimulation, where indicated. DMSO, into which the inhibitors were dissolved, was used as a control. After the stimulation, the cells were lysed in lysis buffer (50 mM HEPES, pH 7.5, 150 mM NaCl, 10 mM EDTA, 100 mM NaF, 1% TritonX-100 supplemented with 2 mM Na3VO4, 0.5 mM PMSF, 100 U/ml approtinin and 10 μg/ml leupeptin). Clarified lysates were separated by SDS-PAGE, transferred to nitrocellulose and immunoblotted using the phosphospecific antibodies for Akt-Ser473, Akt-Thr308, p42/44 MAPK-Thr202/Tyr204 or CREB-Ser133. The bound antibodies were detected using horseradish peroxidase conjugated secondary antibodies and enhanced chemiluminescence detection system. The blots were stripped and reprobed with antibodies against Akt, MAPK or CREB for quantification by reading the optical densities of the signals with Multi-Analyst 2.0.1 program (Bio-Rad).
# The p42/p44 MAPK activation was detected by Western blotting using phospho-Thr202/Tyr204-MAPK specific antibodies and CREB phosphorylation using phospho-Ser133 specific antibodies. The growth factor concentrations used were: VEGF 10 ng/ml, VEGF-C 100 ng/ml and VEGF-C156S 500 ng/ml. […]
# Akt = Akt phosphorylation in HMVE cells, Western blot; type: cell-based, human; settings: inhibitor 20 μM
# Protocol: as §1, with “Clarified lysates were separated by SDS-PAGE, transferred to nitrocellulose and immunoblotted using the phosphospecific antibodies for Akt-Ser473, Akt-Thr308, p42/44 MAPK-Thr202/Tyr204 or CREB-Ser133.” left out
# As discussed in the background, a major signal transduction pathway by which growth factor receptors can promote cell survival employs the PI-3-kinase and its downstream target, the serine-threonine kinase Akt. The effect of the different VEGFs on Akt was analyzed by assessing Akt phosphorylation in serine 473 and threonine 308 using phosphospecific antibodies.
smiles,measurement,setting,value
"O=c1cc(N2CCOCC2)oc2c(-c3ccccc3)cccc12 [LY294002, reference compound]",effect of inhibitor on CREB phosphorylation,CREB,did not affect CREB phosphorylation
same,effect on Akt phosphorylation in response to all the VEGFs studied,Akt,abolished the Akt phosphorylation
